Data: the supplement of paper PMC4604168 (melanoma cell lines)
The other results are listed elsewhere or left out. Single values are uncertain, as repeats are few or missing.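 Imaging used 1,536-well plates; nuclei positive for cleaved PARP by antibody were divided by total DNA-stained nuclei to yield the apoptosis fraction. Doses for screening kept most cells viable, and cell lines differ markedly in resting and induced cleaved-PARP levels.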

tested on: COLO792; experiment: cleaved PARP positive nuclei fraction relative to DMSO control; melanoma cells; higher = more apoptosis; conditions: library dose: low library concentration; 72 h

Compound	cleaved PARP positive nuclei fraction [%]
Cc1ccc(Nc2nccc(N(C)c3ccc4c(C)n(C)nc4c3)n2)cc1S(N)(=O)=O [Pazopanib] + COC(=O)c1sccc1S(=O)(=O)Nc1ccc(Nc2ccccc2)cc1OC [GSK0660] (first compound 0.4 µM, partner dose 1 µM)	46.3
COc1cc([C@@H]2c3cc4c(cc3[C@@H](O[C@@H]3O[C@@H]5CO[C@@H](C)O[C@H]5[C@H](O)[C@H]3O)[C@H]3COC(=O)[C@H]23)OCO4)cc(OC)c1O [etoposide] + O=S(=O)(c1ccccc1)N(CC(F)(F)F)c1ccc(C(O)(C(F)(F)F)C(F)(F)F)cc1 [T0901317] (first compound 0.02 µM, partner dose 1.4 µM)	62.7
O=c1[nH]nc(Sc2ncc([N+](=O)[O-])s2)n1-c1ccc2c(c1)OCCO2 + c1cc(-c2cnn3cc(-c4ccc(OCCN5CCCCC5)cc4)cnc23)ccn1 [Dorsomorphin] (first compound 0.2 µM, partner dose 0.4 µM)	46.9
Cc1cc(Nc2cc(N3CCN(C)CC3)nc(Sc3ccc(NC(=O)C4CC4)cc3)n2)n[nH]1 [Tozasertib] + Oc1cc(-c2nc(-c3ccccc3)[nH]c2-c2ccncc2)ccc1Cl [L779450] (first compound 0.006 µM, partner dose 0.2 µM)	70.5
Cc1cc(Nc2cc(N3CCN(C)CC3)nc(Sc3ccc(NC(=O)C4CC4)cc3)n2)n[nH]1 [Tozasertib] + Cn1cc(/C=C2\C(=O)Nc3cccnc32)c2ccccc21 [GW441756] (first compound 0.006 µM, partner dose 0.4 µM)	102
Cc1cn(-c2cc(NC(=O)c3ccc(C)c(Nc4nccc(-c5cccnc5)n4)c3)cc(C(F)(F)F)c2)cn1 [nilotinib] + O=C(O)C(=O)Nc1sc2c(c1C(=O)O)CCNC2 [TCS401] (first compound 0.2 µM, partner dose 1.66667 µM)	113
Cc1cn(-c2cc(NC(=O)c3ccc(C)c(Nc4nccc(-c5cccnc5)n4)c3)cc(C(F)(F)F)c2)cn1 [nilotinib] + O=S(=O)(c1ccccc1)N(CC(F)(F)F)c1ccc(C(O)(C(F)(F)F)C(F)(F)F)cc1 [T0901317] (first compound 0.2 µM, partner dose 1.4 µM)	111
COc1cc([C@@H]2c3cc4c(cc3[C@@H](O[C@@H]3O[C@@H]5CO[C@@H](C)O[C@H]5[C@H](O)[C@H]3O)[C@H]3COC(=O)[C@H]23)OCO4)cc(OC)c1O [etoposide] + Cc1cc([N+](=O)[O-])ccc1NS(=O)(=O)c1cc(Cl)ccc1Cl [FH535] (first compound 0.02 µM, partner dose 1 µM)	98.9
N#CC[C@H](C1CCCC1)n1cc(-c2ncnc3[nH]ccc23)cn1 [ruxolitinib] + N#Cc1c(O)c2c(-c3ccc(-c4ccccc4O)cc3)csc2[nH]c1=O [A769662] (first compound 1 µM, partner dose 2 µM)	105
COc1cc([C@@H]2c3cc4c(cc3[C@@H](O[C@@H]3O[C@@H]5CO[C@@H](C)O[C@H]5[C@H](O)[C@H]3O)[C@H]3COC(=O)[C@H]23)OCO4)cc(OC)c1O [etoposide] + O=C1NC(=O)/C(=C/c2ccc(-c3ccc(F)cc3O)o2)S1 [AS252424] (first compound 0.02 µM, partner dose 1 µM)	60.5
COc1cc([C@@H]2c3cc4c(cc3[C@@H](O[C@@H]3O[C@@H]5CO[C@@H](C)O[C@H]5[C@H](O)[C@H]3O)[C@H]3COC(=O)[C@H]23)OCO4)cc(OC)c1O [etoposide] + CC(C)CCN1c2nc(Nc3cc(F)c(O)c(F)c3)ncc2N(C)C(=O)C1C [BID1870] (first compound 0.02 µM, partner dose 0.2 µM)	69.4
Cc1ccc(Nc2nccc(N(C)c3ccc4c(C)n(C)nc4c3)n2)cc1S(N)(=O)=O [Pazopanib] + CCN(CC)CCCCNc1ncc2cc(-c3cc(OC)cc(OC)c3)c(NC(=O)NC(C)(C)C)nc2n1 [PD173074] (first compound 0.4 µM, partner dose 0.1 µM)	155
Cc1cn(-c2cc(NC(=O)c3ccc(C)c(Nc4nccc(-c5cccnc5)n4)c3)cc(C(F)(F)F)c2)cn1 [nilotinib] + COc1ccc2c(c1)CCC1C2CCC2(C)C(NCCCCCCN3C(=O)C=CC3=O)CCC12 [U73122] (first compound 0.2 µM, partner dose 0.4 µM)	100
